# This is one part of the list. Further columns of the screen follow, without active or inactive calls. The list favours compounds with an active or inconclusive main result. The note in brackets gives the kind of curve behind each potency; many fits are weak.
# Experiment: qHTS Assay for Lipid Storage Modulators in Drosophila S3 Cells;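 as to cell number change: cells counted by Cell Tracker Red CMTPX staining in the red channel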
# Settings: BODIPY lipid droplet fluorescence, 18-24 h; for cell number change: measured here: cell count max response, cells fed with added oleic acid
# Procedure, shortened: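 Drosophila S3 cells loaded with oleic acid (400 uM, as added) and compounds at several concentrations; lipid droplets imaged by 488-nm laser-scanning cytometry, 500–530 nm intensity and object ratio to cell channel. Percent activity normalized to 20 uM Triacsin C.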
# [1] = measured here: cell number channel AC50, cells fed with added oleic acid
# [2] = measured here: lipid fluorescence (Fed channel) AC50, cells fed with added oleic acid
Compound,cell number change [%],AC50 [1],AC50 [2]
COc1cscc1C(N)=O,31.8,"0.259 µM [rising, full curve, poor fit]","16.4 µM [rising, partial curve, poor fit]"
COc1ccc(NS(=O)(=O)c2cc(NC(=O)c3ccccc3F)ccc2N2CCCC2)cc1,7.26,–,–
O=C(N/N=C/c1c(F)cccc1Cl)c1cc(C2CC2)[nH]n1,-2.75,–,–
O=C(OCc1nnc(-c2ccccc2)o1)c1ccc2c(c1)OCO2,-18.3,–,"29.1 µM [rising, single point]"
CN(C)CCN(C(=O)c1ccc(N2C(=O)CCC2=O)cc1)c1nc2cc3c(cc2s1)OCCO3,30.4,–,–
CC(=O)N1N=C(c2cccs2)CC1c1ccco1 (stereo not drawn),18,–,"0.259 µM [falling, full curve, poor fit]"
CN(C)c1ccc(NC(=O)c2ccc(N3CCOCC3)nc2)cc1,–,–,"3.66 µM [rising, full curve]"
O=C(CSc1ccc(S(=O)(=O)N2CCOCC2)cn1)Nc1ccc(F)c(F)c1,-25.6,"0.259 µM [falling, full curve, poor fit]",–
O=C(COC(=O)CC1CCCC1)Nc1cccc(F)c1,-34.1,"29.1 µM [falling, partial curve, poor fit]",–
CCOC(=O)C1CCCN(S(=O)(=O)c2cc(C(=O)OC)n(C)c2)C1 (stereo not drawn),5.39,–,–
COC(=O)c1ccccc1NC(=O)CSc1nc(N)cc(N)n1,31.8,"32.6 µM [rising, single point]","13 µM [rising, partial curve]"
O=C(c1cccc(S(=O)(=O)N2CCOCC2)c1)N1CCC(Cc2ccccc2)CC1,-38.4,"29.1 µM [falling, single point]","29.1 µM [falling, single point]"
COc1ccc(CCNC(=O)C2CCN(S(=O)(=O)c3ccc(C)cc3)CC2)cc1OC,1.65,–,–
COc1ccc(CN(C)C(=O)Cc2ccc(OC)c(S(=O)(=O)N3CCOCC3)c2)cc1,-21.8,–,"0.0411 µM [falling, full curve, poor fit]"
Cc1cc(C)c(NC(=O)CNC(=O)CN(C)Cc2ccc(Br)s2)c(C)c1,-0.306,–,"29.1 µM [rising, single point]"
COc1ccc2c(Cl)c(C(=O)N/N=C3\CCCC(=O)C3)sc2c1,–,"1.03 µM [falling, single point]","14.6 µM [falling, partial curve]"
CCN1C/C(=C/c2cccc([N+](=O)[O-])c2)C(=O)/C(=C/c2cccc([N+](=O)[O-])c2)C1,-25.1,–,"5.17 µM [falling, full curve]"
Cc1ccc(-c2nc3ccccc3s2)cc1S(=O)(=O)N1CCOCC1,–,"0.517 µM [rising, partial curve, poor fit]","29.1 µM [rising, single point]"
Cc1ccc(NC(=O)C(C)c2ccc(-c3ccccc3)c(F)c2)cc1 (stereo not drawn),-15.5,–,–

Compound,cell number change [%],AC50 [1],AC50 [2]
O=C(CSc1nnc(-c2ccco2)o1)c1ccccc1,-15.9,–,–
Cc1cc(=O)[nH]c(SCc2nc3ccccc3s2)n1,-34.3,"14.6 µM [falling, single point]","29.1 µM [falling, single point]"
CC(c1ccccc1)N(NC(=O)C(O)(c1ccccc1)c1ccccc1)C(=O)c1ccccc1 (stereo not drawn),-51.9,"11.6 µM [falling, partial curve, poor fit]","11.6 µM [falling, partial curve, poor fit]"
COc1ccc(/C=N\NC(=O)COc2ccc(C(C)(C)C)cc2)cc1Cn1nc(C)cc1C,-60.7,"23.1 µM [falling, single point]","29.1 µM [falling, single point]"
COc1ccc(NC(=O)CSc2cccc3cccnc23)c(OC)c1,-5.62,–,"1.16 µM [rising, full curve]"
CCCCn1c(N)c(N(CC(C)C)C(=O)CSCC(=O)Nc2ccc(C)cc2)c(=O)[nH]c1=O,29,–,"6.51 µM [rising, single point]"
O=c1[nH]cnc2c1sc(=S)n2-c1ccccc1,–,"6.51 µM [falling, single point]",–
Cc1ccc2cc(S(=O)(=O)NCCC(=O)O)ccc2c1,-8.41,–,"0.00517 µM [falling, full curve, poor fit]"
COc1ccc2nc(NS(=O)(=O)c3ccc(NC(C)=O)cc3)sc2c1,-1.18,–,"0.517 µM [rising, single point]"
O=C(O)c1cc2c(cc1NC(=O)c1c(F)cccc1Cl)OCCCO2,10.8,–,"0.116 µM [falling, single point]"
CCc1cc(-c2nnc(SCC(=O)NC3CC3)n2C)cs1,17.2,–,–
O=C1CN(C(=O)c2ccccn2)c2ccccc2N1,-3.25,–,"5.17 µM [falling, single point]"
CCOC(=O)C1CCCN(C(=O)c2ccc(OCC)cc2)C1 (stereo not drawn),7.14,–,"0.0103 µM [falling, full curve, poor fit]"
O=C(Cc1cccc2ccccc12)N/N=C/c1ccc2cccc(O)c2n1,-40.8,"29.1 µM [falling, single point]","5.17 µM [falling, partial curve]"
Cc1ccc(N2C(=O)CC(N3CCN(C4CCc5ccccc5C4)CC3)C2=O)cc1 (stereo not drawn),1.74,–,"0.82 µM [falling, full curve, poor fit]"
O=C(NCc1ccccc1F)C1CCCN1C(=O)NCc1ccccc1 (stereo not drawn),-35.1,"5.8 µM [falling, partial curve]","1.84 µM [falling, partial curve, poor fit]"
Cc1cc(=S)[nH]c2c(C)cccc12,-0.799,–,–
Cc1c(NC(=O)c2nn3c(C(F)(F)F)cc(-c4ccccc4)nc3c2Br)c(=O)n(-c2ccccc2)n1C,–,"1.46 µM [falling, partial curve]","1.46 µM [falling, full curve, poor fit]"
Cc1cc2ccccn2c1C(=O)c1ccc(F)cc1,10.9,–,"29.1 µM [rising, single point]"

# Another view of some results above.
Compound	cell number change [%]	AC50 [1]	AC50 [2]
O=C(c1cccc(S(=O)(=O)N2CCOCC2)c1)N1CCC(Cc2ccccc2)CC1	-38.4	29.1 µM [falling, single point]	29.1 µM [falling, single point]
COc1ccc2nc(NS(=O)(=O)c3ccc(NC(C)=O)cc3)sc2c1	-1.18	–	0.517 µM [rising, single point]
Cc1ccc(N2C(=O)CC(N3CCN(C4CCc5ccccc5C4)CC3)C2=O)cc1 (stereo not drawn)	1.74	–	0.82 µM [falling, full curve, poor fit]

# From PubChem BioAssay AID2685 (National Center for Advancing Translational Sciences (NCATS), 2010)
